According to patent US20210317225A1 (Genmab, published 2021):
Results are given in words; binding and its absence hold for the method and conditions named. Some binding calls cover weakened binding; strength is not graded here.

Sequences of proteins named here, by UniProt entry; tags and fusion partners are left off. A change or cut given only in a name is not applied to a line headed by its entry.
UniProt Q07011: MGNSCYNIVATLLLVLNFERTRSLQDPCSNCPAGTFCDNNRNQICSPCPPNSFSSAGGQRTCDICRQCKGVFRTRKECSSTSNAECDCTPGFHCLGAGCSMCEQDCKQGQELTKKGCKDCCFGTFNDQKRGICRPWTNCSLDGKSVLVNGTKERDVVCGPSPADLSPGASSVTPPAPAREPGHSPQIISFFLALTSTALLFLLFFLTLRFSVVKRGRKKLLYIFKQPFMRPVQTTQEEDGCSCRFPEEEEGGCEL

Each binder was assayed against Human CD137 shuffle 6 (amino acids 24-47 replaced by wild boar CD137) (human, amino acids 24-47 from wild boar) (UniProt Q07011) (assay: flow cytometry on transfected HEK293T-17 cells, 1 µg/mL antibody).

| Binder | binding |
| --- | --- |
| CD137 antibody clone 007 (rabbit) (antibody, human IgG1, kappa, V domains shown, also called Clone 7; CD137 clone 007) VH: QSLEESGGRLVTPGTPLTLTCTASGFSLSSYDVSWVRQAPGKGLEYIGFIGSDGSAHYATWVKGRFTISKTSTTVDLKITSPTTEDTATYFCARDWNDYWAHDLWGPGTLVTVSS VL: AQVLTQTTSPVSAAVGGTVTINCQASQIVTSKSALSWYQQKPGQPPRLLIYKASTLASGVPSRFSGSGSGTQFTLTISDLESDDAATYYCAGGYYNSGDLNPFGGGTEVVVKR | binds |
| CD137 antibody clone 012 (rabbit) (antibody, human IgG1, kappa, V domains shown, also called Clone 12; CD137 clone 012) VH: QSVEESGGRLVTPGTPLTLTCTVSGFSLSDYYMTWVRQAPGKGLEYIGIMSGSGSTYYASWAKGRFTISKTSSTTLELKITSPTTEDTAIYFCARDGDYAGWGYATGAFDPWGPGTLVTVSS VL: AAVLTQTPSPVSAAVGGTVTISCQASQSVVGNSLLSWFQKKPGQPPKLLIYSASSLASGVPSRFKGSGSGTQFTLTISDLESDDAATYYCTGRYNSDTDTFVFGGGTEVVVKR | binds |
| CD137 antibody clone 004 (rabbit) (antibody, human IgG1, kappa, V domains shown, also called Clone 4; CD137 clone 004) VH: QSLEESGGRLVTPGTPLTLTCTASGFSLSRYDMSWVRQAPGKGLEYIGVISSSGGTNYANWAKGRFTISKTSTTVDLKITSPTTEDTATYFCAREGDYWDFNLWGPGTLVTVSS VL: AQVLTQTPSSVSAAVGGTVTINCQASQSISNLLAWYQQKPGQPPKLLIYGASTLASGVPSRFSGSGSGTEFTLTISDLESDDAATYYCAGGFPGLDTVAAFGGGTEAVVTR | binds |
| CD137 antibody clone 008 (rabbit) (antibody, human IgG1, kappa, V domains shown, also called Clone 8; CD137 clone 008) VH: QSLEESGGRLVTPGTPLTLTCTASGFSLSSYDMSWVRQAPGKGLEYIGYISSSGNTYYASWAKSRFTISKTSTTVDLKITSPTTEDTATYFCAREGDYWDFNLWGPGTLVTVSS VL: AQVLTQTPSSVSAAVGGTVTINCQASQSISNLLAWYQQKPGQRPRLLIYRASTLASGVPSRFKGSGSGTEFTLTISDLESEDAATYYCAGGFPGLDTGATFGGGTEAVVTR | binds |
| CD137 antibody clone 010 (rabbit) (antibody, human IgG1, kappa, V domains shown, also called Clone 10; CD137 clone 010) VH: QSVEESGGRLVTPGTPLTLTCTVSGFSLSTYAMIWVRQAPGKGLEWIGVVYDNGYISHATWVKGRFTISKTSTTVGLEITSPTTEDTATYFCARSADGSWSTYFNLWGQGTLVTVSS VL: DIVMTQTPASVEAAVGGTVTIKCQASESISNYLAWYQQKPGQPPKLLIYKASTLASGVSSRFKGSGSGTEFTLTISDLESADAATYYCQTNYCCSSSDNGFAFGGGTEVVVKR | binds |
| CD137 antibody clone 006 (rabbit) (antibody, human IgG1, kappa, V domains shown, also called Clone 6; CD137 clone 006) VH: QSVEESGGRLVTPGTPLTLTCTVSGFSLSSYAMSWVRQAPGKGLEWIGIISTSGITYYASWAKGRFTISKTSTMVDLKITSPTTEDTATYFCARLNGFDDYVRYFDFWGLGTLVTVSS VL: AIELTQTPSSVSAAVGGTVTINCQASESIASNLAWYQQKPGQPPKLLIYAASYLASGVPSRFKGSGSGTEYTLTISGVQSADAATYYCQSAFYVSSSDNAFGGGTEVVVKR | binds |

The next lines start with the values.

| binding | Binder |
| --- | --- |
| binds | CD137 antibody clone 011 (rabbit) (antibody, human IgG1, kappa, V domains shown, also called Clone 11; CD137 clone 011) VH: QSLEESGGRLVTPGTPLTLTCTVSGIDLSSYHMCWVRQAPGKGLEYIGYIAYGGNTYYANWAKGRFTISKTSTTVDLRITSPTTEDTATYFCARGYSEDSYWGLWGPGTLVTVSS VL: AYDMTQTPASVEAAVGGTVTIKCQASQNIENYLAWYQQKPGQPPKLLIYDTSKLTSGVPSRFSGSGSGTDFTLTISGVQSDDAATYYCQQDYGIIFVDNIFGGGTEVVVKR |
| binds | CD137 antibody clone 003 (rabbit) (antibody, human IgG1, kappa, V domains shown, also called Clone 3; CD137 clone 003) VH: QSVEESGGRLVTPGTPLTLTCTASGFTISSYHMIWVRQAPGEGLEWIGDIYGGTATTDYASWAKGRFTISKTSTTVDLKMTSLTTEDTATYFCARARYSGGSYANYVFNLWGQGTLVTVSS VL: DIVMTQTPASVEAAVGGTVTIKCQASQSISSYLAWYQQKPGQPPKLLIYRTSTLESGVPSRFKGSGSGTEFTLTISDLESADAATYYCQGYDWSSSNRYDNTFGGGTEVVVKR |
| binds | CD137 antibody clone 002 (rabbit) (antibody, human IgG1, kappa, V domains shown, also called Clone 2; CD137 clone 002) VH: QSVEESGGRLVTPGTPLTLTCTVSGFSLTYYAVTWVRQPPGKGLEWIGVIYDNGATAFATWAKGRFTMSKNSTTVALKVTSPTTEDTATYFCARSANNAWSTYSNLWGQGTLVTVSS VL: DIVMTQTPSSVSAAVGGTVTINCQASEDISSYLSWYQQKLGQPPKLLIYKASTLESGVPSRFKGSGSGTEYTLTISDLESDDAATYYCQSYYSGSISGYGFVFGGGTGVVVKR |
| binds | CD137 antibody clone 009 (rabbit) (antibody, human IgG1, kappa, V domains shown, also called Clone 9; CD137 clone 009) VH: QSLEESGGRLVTPGTPLTLTCTVSGFSLNDYWMSWVRQAPGKGLEWIGYIDVGGSLYYASWAKGRFTISRTSTTVDLKMTSLTTEDTATYFCARGGLTYGFDLWGPGTLVTVSS VL: DIVMTQTPASVSEPVGGTVTINCQASEDISSYLAWYQQKPGQRPKRLIYGASDLASGVPSRFSASGSGTEYALTISDLESADAATYYCHYYATISGLGVAFGGGTEVVVKR |
| binds | CD137 antibody clone 001 (rabbit) (antibody, human IgG1, kappa, V domains shown, also called Clone 1; CD137 clone 001) VH: QSVEESGGRLVTPGTPLTLTCTVSGFSLSSYAVSWVRQAPGKGLEWIGVIWNNGATHYATWAKGRFTISKASTTVDLKVTSPTTEDTATYFCARSANDAWSTYSDLWGQGTLVTVSS VL: DIVMTQTPASVEAAVGGTVTIKCQASQTITNYLSWYQQKPGQPPKLLIYKASTLTSGVSSRFKGSGSGTEFTLTISDLESDDAATYYCQNYYYGSSSGYGFVFGGGTEVVVKR |
